Our source for the survivor count and T/C values is PubChem BioAssay AID330 (DTP/NCI, 2004).

The list is a part of this screen's results and no random one: it gathers tests that were run many times, whatever their T/C, doses with no T/C, and many T/C values between a quarter and a half above the control. Other doses and runs of a compound stand elsewhere. T/C gives the treated animals as a percentage of the vehicle group. Some doses have a count of surviving animals in place of a T/C: the source holds a T/C of zero for them, seemingly a mark for toxic or unscored doses. Some survivor counts are full or nearly so, which does not show that the dose was tolerated: the source hardly ever lists a survival T/C far under the control, and the zero likely stands for such cases as well. Counts of survivors are from the toxicity check (mostly the fifth day) where no day follows; animals may have died later. Schedule codes are those of the source, read here as Q, the interval in days (D) or hours (H), X, the number of doses. Signs of the kind (2×) stand for listed records that agree. Some entries were tested several times; the results are listed from low to high. Where survival is the endpoint, the PubChem record calls one and a half times the control and up active, and a quarter to a half above the control has no call in these data; cut-offs in other NCI protocols can differ. Some T/C values carry the count of animals alive at the toxicity check (mostly the fifth day); where none is given, no animal had died by that day.

For this test, the system named is P388 leukemia ip, CD2F1 mice, survival T/C. Put plainly: NCI In Vivo Anticancer Drug Screen. Data for tumor model P388 Leukemia (intraperitoneal) in CD2F1 (CDF1) mice. The settings on record: T/C endpoint: median survival time, higher T/C = longer survival.
Where [1] appears, read: dose: 200.0 mg/kg/injection, schedule: Q01DX005 (ip), vehicle: saline.
The mark [2] stands for this setting: dose: 100.0 mg/kg/injection, schedule: Q04DX002 (ip), vehicle: saline with Tween-80.
Where [3] appears, read: dose: 100.0 mg/kg/injection, schedule: Q01DX009 (ip), vehicle: saline with Tween-80.
Setting [4] is: dose: 200.0 mg/kg/injection, schedule: Q01DX009 (ip), vehicle: saline with Tween-80.
[5] abbreviates: dose: 50.0 mg/kg/injection, schedule: Q01DX005 (ip), vehicle: saline with Tween-80.
The mark [6] stands for this setting: dose: 100.0 mg/kg/injection, schedule: Q01DX005 (ip), vehicle: saline with Tween-80.
The mark [7] stands for this setting: dose: 200.0 mg/kg/injection, schedule: Q01DX005 (ip), vehicle: saline with Tween-80.
Where [8] appears, read: dose: 100.0 mg/kg/injection, schedule: Q01DX005 (ip), vehicle: Klucel (hydroxypropylcellulose) (HPC).
The mark [9] stands for this setting: dose: 200.0 mg/kg/injection, schedule: Q01DX005 (ip), vehicle: Klucel (hydroxypropylcellulose) (HPC).
Where [10] appears, read: dose: 240.0 mg/kg/injection, schedule: Q01DX005 (ip), vehicle: saline with Tween-80.
[11] abbreviates: dose: 25.0 mg/kg/injection, schedule: Q01DX009 (ip), vehicle: saline with Tween-80.
Where [12] appears, read: dose: 50.0 mg/kg/injection, schedule: Q01DX009 (ip), vehicle: saline with Tween-80.

Turning to `CC(C)NC1(N(C)C)N=C(N(C)C)N=C(N(C)C)O1` (stereo not given), the survivor count under setting [1] is recorded as 0 of 6.
As to `CC(C)CNC(=O)c1ccc(OCC(O)CNC(C)(C)C)c(Cl)c1` (stereo not given), for the setting “dose: 400.0 mg/kg/injection, schedule: Q04DX003 (ip), vehicle: Klucel (hydroxypropylcellulose) (HPC)”, the survivor count is reported as 0 of 6.
For the molecule `C/C(=N\N=C(N)N)c1ccc(-c2ccccc2)cc1`, the survivor count under setting [2] was 1 of 6.
`CC(=O)CC(=O)c1ccc(C)cc1.CC(=O)CC(=O)c1ccc(C)cc1.[Cu]`: the survivor count is 0 of 6 and 3 of 6 under setting [3]; 6 of 6 under setting [4].
For the molecule `CCCCCCC[CH2][Sn]([F])([F])[CH2]CCCCCCC`, the survivor count was 5 of 6 (dose: 200.0 mg/kg/injection, schedule: Q04DX003 (ip), vehicle: saline) and 0 of 6 (dose: 400.0 mg/kg/injection, schedule: Q04DX003 (ip), vehicle: saline).
With `CC(C)c1cc(C(=O)[O-])c([O-])c(C(C)C)c1.[Cu+2].c1cnc2c(c1)ccc1cccnc12`, the survivor count by setting is: under setting [5], 0 of 6; under setting [6], 0 of 6; under setting [7], 0 of 6.
As for `CCCCCCCCCNCC(O)c1cc2c(c3ccccc13)CCCC2` (stereo not given), the survivor count reads like this: (dose: 50.0 mg/kg/injection, schedule: Q01DX005 (ip), vehicle: Klucel (hydroxypropylcellulose) (HPC)) 3 of 5; under setting [8], 0 of 5; under setting [9], 0 of 5.
As for `CCOC(CN=Cc1cc(C)c2oc3ccccc3c2c1C)OCC`, the survivor count (dose: 400.0 mg/kg/injection, schedule: Q01DX009 (ip), vehicle: saline with Tween-80) was 4 of 6.
Turning to `COc1cccc2c1C(=O)c1c(O)c3c(c(O)c1C2=O)C[C@@](O)(/C(C)=N/NC(=O)c1cccc([N+](=O)[O-])c1)C[C@@H]3OC1CC(N)C(O)C(C)O1` (stereo not given in full), the T/C runs as follows: (dose: 0.12 mg/kg/injection, schedule: Q01DX009 (ip), vehicle: water) 125 % of control; (dose: 0.25 mg/kg/injection, schedule: Q01DX009 (ip), vehicle: water) 130 % of control; (dose: 0.5 mg/kg/injection, schedule: Q01DX009 (ip), vehicle: water) 130 % of control; (dose: 1.0 mg/kg/injection, schedule: Q01DX009 (ip), vehicle: water) 146 % of control; (dose: 20.0 mg/kg/injection, schedule: Q01DX001 (ip), vehicle: water) 126 % of control; (dose: 25.0 mg/kg/injection, schedule: Q04DX003 (ip), vehicle: water) 138 % of control. In addition, the T/C (dose: 32.0 mg/kg/injection, schedule: Q04DX003 (ip), vehicle: saline) was 131 and 137 % of control; the T/C (dose: 50.0 mg/kg/injection, schedule: Q04DX003 (ip), vehicle: water, evaluated on day 30) was 140 % of control; the T/C (dose: 50.0 mg/kg/injection, schedule: Q04DX003 (ip), vehicle: water, evaluated on day 45) is 126 % of control; the T/C (dose: 64.0 mg/kg/injection, schedule: Q04DX003 (ip), vehicle: saline) is 134 and 135 % of control; the T/C (dose: 128.0 mg/kg/injection, schedule: Q04DX003 (ip), vehicle: saline) is 126 % of control. Also, the survivor count is 6 of 6 (2×) (dose: 16.0 mg/kg/injection, schedule: Q01DX009 (ip), vehicle: water); 6 of 6 (dose: 40.0 mg/kg/injection, schedule: Q01DX001 (ip), vehicle: water); 5 of 6 (dose: 80.0 mg/kg/injection, schedule: Q01DX001 (ip), vehicle: water); 0 of 6 (dose: 160.0 mg/kg/injection, schedule: Q01DX001 (ip), vehicle: water).
On to `Nc1nnc(-c2ccc(Nc3nc4ccccc4[nH]3)c([N+](=O)[O-])c2)s1`, for which the survivor count under setting [10] is reported as 0 of 6.
Turning to `CC(C)(C)NC(=S)N/N=C/c1cc(Cl)cc(Cl)c1O`, the survivor count (dose: 12.5 mg/kg/injection, schedule: Q01DX009 (ip), vehicle: saline with Tween-80) is 6 of 6; the survivor count under setting [11] is 6 of 6; the survivor count under setting [12] is recorded as 6 of 6; the survivor count under setting [3] was 6 of 6.
For the molecule `Cc1c(NC(=O)Nc2cc([N+](=O)[O-])ccc2Cl)c(=O)n(-c2ccccc2)n1C`, the survivor count under setting [10] is on record as 6 of 6.
Regarding `C/C(=C\C(=N\N=C(N)N)c1ccc(Cl)cc1)c1ccc(Cl)cc1`, the survivor count is given as 6 of 6 under setting [11], 1 of 6 under setting [12], 0 of 6 under setting [3] and 0 of 6 under setting [4].
In the case of `C/C(=C/c1cc(Br)c(O)c(Br)c1)[N+](=O)[O-]`, the survivor count reads like this: (dose: 50.0 mg/kg/injection, schedule: Q01DX009 (ip), vehicle: saline) 1 of 6 and 6 of 6; (dose: 100.0 mg/kg/injection, schedule: Q04DX003 (ip), vehicle: saline) 3 of 6; (dose: 200.0 mg/kg/injection, schedule: Q04DX003 (ip), vehicle: saline with Tween-80) 1 of 6; (dose: 400.0 mg/kg/injection, schedule: Q04DX003 (ip), vehicle: saline with Tween-80) 0 of 6. Moreover, the T/C (dose: 50.0 mg/kg/injection, schedule: Q04DX003 (ip), vehicle: saline) is 130 % of control.
Turning to `O=C1c2sccc2C2NC12` (stereo not given), the survivor count under setting [1] was 5 of 6.
Consider `COC1=CC(=O)C2=C(OCO2)C1=O`, for which the survivor count is reported as 0 of 6 under setting [2]; 0 of 6 (dose: 200.0 mg/kg/injection, schedule: Q04DX002 (ip), vehicle: saline with Tween-80); 0 of 6 (dose: 400.0 mg/kg/injection, schedule: Q04DX002 (ip), vehicle: saline with Tween-80).
With `O=C1NC2(CCCCC2)C(=O)N1CO`, the survivor count under setting [7] is listed as 1 of 6.
On to `CCC12CCCN1CCc1c([nH]c3ccccc13)C2=O` (stereo not given), for which, under “dose: 400.0 mg/kg/injection, schedule: Q04DX002 (ip), vehicle: suspension in saline”, the survivor count is given as 0 of 6.
As for `CC1CN=C(c2ccc(NC(=O)c3ccc(NC(=O)c4ccc(C5=NCC(C)N5)cc4)cc3)cc2)N1` (stereo not given), the T/C runs as follows: (dose: 12.5 mg/kg/injection, schedule: Q01DX005 (ip), vehicle: saline with Tween-80) 146 % of control; (dose: 25.0 mg/kg/injection, schedule: Q01DX005 (ip), vehicle: saline with Tween-80) 129 [5 of 6 alive] and 146 % of control [5 of 6 alive]. In addition, the survivor count is, setting by setting: under setting [5], 0 of 6; under setting [6], 0 of 6; under setting [7], 0 of 6.
Take `CC([NH-])CC(C)[NH-].O=[N+]([O-])O.O=[N+]([O-])O.[Pt+2]` (stereo not given): the T/C (dose: 6.25 mg/kg/injection, schedule: Q04DX002 (ip), vehicle: saline) is 140 % of control. Further, the survivor count (dose: 25.0 mg/kg/injection, schedule: Q04DX002 (ip), vehicle: saline) was 6 of 6 (2×).
For `COc1ccc(-c2csc(NC(=O)Nc3nc(-c4ccc(OC)cc4)cs3)n2)cc1`, the survivor count (dose: 120.0 mg/kg/injection, schedule: Q01DX005 (ip), vehicle: saline with Tween-80) is given as 6 of 6 and the survivor count under setting [10] is reported as 6 of 6.
Take `CC(C)(C)c1cc(C#CC#Cc2cc(C(C)(C)C)cc(C(C)(C)C)c2)cc(C(C)(C)C)c1`: the survivor count reads like this: under setting [8], 6 of 6; under setting [9], 6 of 6.
For `COc1ccc2c(c1)CCC1(C)CC(=O)C(Br)=C21` (stereo not given), the T/C (dose: 25.0 mg/kg/injection, schedule: Q01DX009 (ip), vehicle: Klucel (hydroxypropylcellulose) (HPC)) is 142 % of control. Moreover, the survivor count by setting is: (dose: 50.0 mg/kg/injection, schedule: Q01DX009 (ip), vehicle: Klucel (hydroxypropylcellulose) (HPC)) 6 of 6; (dose: 100.0 mg/kg/injection, schedule: Q01DX009 (ip), vehicle: Klucel (hydroxypropylcellulose) (HPC)) 6 of 6; (dose: 200.0 mg/kg/injection, schedule: Q01DX009 (ip), vehicle: Klucel (hydroxypropylcellulose) (HPC)) 6 of 6.
